# In PMC1933539:
# These are yes or no findings as the source states them, for the method shown. Binding can be weak; no strength is given.
# Target: T1, YscM1 (Yersinia enterocolitica) (UniProt Q7BFA3)
# T1 sequence: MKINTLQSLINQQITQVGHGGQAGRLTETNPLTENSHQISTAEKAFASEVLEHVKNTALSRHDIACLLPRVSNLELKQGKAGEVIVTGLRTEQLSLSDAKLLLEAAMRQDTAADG
# Assay: native gel or EMSA; both purified
substance,measurement,value
SycO (Yersinia enterocolitica type three secretion chaperone SycO),binding,binds
